{"source": "PubChem BioAssay AID1159591 (NIAID, 2016)", "screen": "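Which TLR signalling genes macrophages need for R848-driven Tnf promoter activity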", "cell system": "mouse RAW264.7 G9 macrophage reporter clone (GFP-p65, Tnf promoter-mCherry)", "reagents": "single siRNA against mouse genes", "time to read-out": "cells assayed 48 to 72 hours after siRNA transfection; R848 for 16 hours before fixing", "challenge": "R848 (TLR7/8 agonist) for 16 hours before fixation; dose not given", "measurement": "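After R848 for 16 hours, nuclear Tnf promoter mCherry signal imaged minus background, scaled per plate by median and MAD into robust z against non-targeting controls, averaged across replicates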", "direction": "mean Tnf reporter z-score: higher = stronger Tnf promoter reporter signal than controls", "call rule": "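Activity score from absolute z: steps above 1, 1.5, 2 and 2.5 give 25 to 100; active cut not stated, but active genes here sit near z -1.5 or below, or 1.5 or above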", "meaning of the calls": "active = reporter clearly up or down; inactive = little reporter change", "note": "In all, the deposit lists 756 reagents; shown is a random part of them. 130 of all reagents (17%) were called active. 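Active calls include both lower and higher Tnf reporter signal.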 Entries without a mark were called inactive. Reagents against one gene are numbered here. Not given: the amount of reagent."}
{"target": "Map3k7", "reagent no.": 1, "mean Tnf reporter z-score": -0.016}
{"target": "Map3k7", "reagent no.": 2, "mean Tnf reporter z-score": -0.093}
{"target": "Map3k7", "reagent no.": 3, "mean Tnf reporter z-score": -1.1}
{"target": "Map3k7", "reagent no.": 4, "mean Tnf reporter z-score": 0.202}
{"target": "Map3k7", "reagent no.": 5, "mean Tnf reporter z-score": -1.45}
{"target": "Map3k7", "reagent no.": 6, "mean Tnf reporter z-score": "-2.17 (active)"}
{"target": "Ccl3", "reagent no.": 1, "mean Tnf reporter z-score": -0.564}
{"target": "Ccl3", "reagent no.": 2, "mean Tnf reporter z-score": -0.0831}
{"target": "Ccl3", "reagent no.": 3, "mean Tnf reporter z-score": -1.04}
{"target": "Ccl3", "reagent no.": 4, "mean Tnf reporter z-score": 1.15}
{"target": "Ccl3", "reagent no.": 5, "mean Tnf reporter z-score": 1}
{"target": "Ccl3", "reagent no.": 6, "mean Tnf reporter z-score": "-3.16 (active)"}
{"target": "Nfkbib", "reagent no.": 1, "mean Tnf reporter z-score": -0.537}
{"target": "Nfkbib", "reagent no.": 2, "mean Tnf reporter z-score": -0.691}
{"target": "Nfkbib", "reagent no.": 3, "mean Tnf reporter z-score": 0.999}
{"target": "Nfkbib", "reagent no.": 4, "mean Tnf reporter z-score": -0.813}
{"target": "Nfkbib", "reagent no.": 5, "mean Tnf reporter z-score": -0.184}
{"target": "Nfkbib", "reagent no.": 6, "mean Tnf reporter z-score": -0.837}
{"target": "Rel", "reagent no.": 1, "mean Tnf reporter z-score": -0.467}
{"target": "Rel", "reagent no.": 2, "mean Tnf reporter z-score": -0.0545}
{"target": "Rel", "reagent no.": 3, "mean Tnf reporter z-score": -0.248}
{"target": "Rel", "reagent no.": 4, "mean Tnf reporter z-score": -0.36}
{"target": "Rel", "reagent no.": 5, "mean Tnf reporter z-score": -0.286}
{"target": "Rel", "reagent no.": 6, "mean Tnf reporter z-score": -0.449}

3 consecutive reagents from above:
{"target": "Map3k7", "reagent no.": 1, "mean Tnf reporter z-score": -0.016}
{"target": "Map3k7", "reagent no.": 2, "mean Tnf reporter z-score": -0.093}
{"target": "Map3k7", "reagent no.": 3, "mean Tnf reporter z-score": -1.1}
